# Measured values as given in the supplement of paper PMC8728848.
# The other results are listed elsewhere or left out.
# B1: BT4246 (Bacteroides thetaiotaomicron), Q89ZX5 (protein)
# chain: MGSSHHHHHHENLYFQGHMASDYLDVVPPEQPNIDDAMSSPTRALGFLYSCYGGVSTDLPSAYLGEINSTTDEYVLPYSWNTDGYWGAYAFNTASSTNQDWLWGTTYQYIGQCYLFLQKLENAGSDIASDAEKEQWRAECQFLVAYYHFATLRRYGPIPITDSYIPMDTPTSEYNGRFHFDYCVDWIANQLDEAAKVLPANRTVTNEWGRATSTIAKAVKARLLLYAASPLWNGSFPYPNWQNENFETPGYGKALVSNTYDKSKWERALAACQEALTLATTSGDRELYDDDEYYSRQSLNLPFVPGVADVEDNKEFLKNVMKMRYAVSTRESEGNKEIIWGLSNQFDFYSRYPLRILKKSDGTWHAGYSGVSPTLYTFEHFYTANGKLPEKDLDFTPSSEWFESAGISSREDIIKLNVGREPRFYAWMAFDGGDYGTKFAAGSPLKLEMRNSEMHGYNPSLFNRDHSVTGFLTQKFVDPVTEFYTAGGSTSGTSAPTILFRLAELYLNVAECHAALGNTQEAIDALNPVRERAGIPKLTLADITNNMTIKDWVHNERFVELWNEGHRFFDVRRWAEGAKYFGANKREGLNAEVQSPTFEEFNKRTTVDAPYVWENRMYLNPVFYNEVYKNPQMVQAPGY
# How the values were obtained:
# Assay in all cases: glycan array binding signal (z-score within array); higher = stronger binding
# Details in all cases: glycan notation: IUPAC condensed, linker removed
# [1] = biological target: GlcNAc(b1-3)Gal(b1-4)GlcNAc(b1-3)Gal(b1-4)GlcNAc(b1-3)Gal(b1-4)GlcNAc(b1-3)Gal(b1-4)GlcNAc(b1-2)[GlcNAc(b1-3)Gal(b1-4)GlcNAc(b1-3)Gal(b1-4)GlcNAc(b1-3)Gal(b1-4)GlcNAc(b1-3)Gal(b1-4)GlcNAc(b1-6)]Man(a1-6)[GlcNAc(b1-3)Gal(b1-4)GlcNAc(b1-3)Gal(b1-4)GlcNAc(b1-3)Gal(b1-4)GlcNAc(b1-3)Gal(b1-4)GlcNAc(b1-2)Man(a1-3)]Man(b1-4)GlcNAc(b1-4)[Fuc(a1-6)]GlcNAc
# Summary of the method: (§1)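 Glycan array data were curated from 3228 arrays in the Consortium for Functional Glycomics database and kept only where the protein sequence was available. Glycan names were converted to IUPAC-condensed notation, and columns mapping to the same glycan were averaged. The binding signal is a within-array Z-score, averaged across arrays of the same protein sequence at different concentrations or buffers and across linkers. Negative Z-scores can be read as non-binding.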
# [2] = biological target: GlcNAc(b1-3)Gal(b1-4)GlcNAc(b1-3)Gal(b1-4)GlcNAc(b1-3)GalNAc
# Summary of the method: as §1
# [3] = biological target: GlcNAc(b1-3)Gal(b1-4)GlcNAc(b1-3)GalNAc
# Summary of the method: as §1
# [4] = biological target: GlcNAc(b1-3)Gal(b1-4)GlcNAc(b1-3)[GlcNAc(b1-3)Gal(b1-4)GlcNAc(b1-3)]GalNAc
# Summary of the method: as §1
# [5] = biological target: GlcNAc(b1-3)Gal(b1-4)GlcNAc(b1-6)[Gal(b1-3)]GalNAc
# Summary of the method: as §1
# [6] = biological target: GlcNAc(b1-3)Gal(b1-4)GlcNAc(b1-6)[GlcNAc(b1-3)Gal(b1-3)]GalNAc
# Summary of the method: as §1
# [7] = biological target: GlcNAc(b1-3)Gal(b1-4)GlcNAc(b1-6)[GlcNAc(b1-3)]Gal(b1-4)GlcNAc
# Summary of the method: as §1
# [8] = biological target: GlcNAc(b1-3)GalNAc
# Summary of the method: as §1
# [9] = biological target: GlcNAc(b1-3)Man
# Summary of the method: as §1
# [10] = biological target: GlcNAc(b1-3)[GlcNAc(b1-4)][GlcNAc(b1-6)]GlcNAc
# Summary of the method: as §1
# [11] = biological target: GlcNAc(b1-3)[GlcNAc(b1-6)]Gal(b1-4)GlcNAc
# Summary of the method: as §1
# [12] = biological target: GlcNAc(b1-3)[GlcNAc(b1-6)]GalNAc
# Summary of the method: as §1
# [13] = biological target: GlcNAc(b1-4)Gal(b1-4)GlcNAc
# Summary of the method: as §1
# [14] = biological target: GlcNAc(b1-4)GlcNAc
# Summary of the method: as §1
# [15] = biological target: GlcNAc(b1-4)GlcNAc(b1-4)GlcNAc
# Summary of the method: as §1
# [16] = biological target: GlcNAc(b1-4)GlcNAc(b1-4)GlcNAc(b1-4)GlcNAc(b1-4)GlcNAc
# Summary of the method: as §1
# [17] = biological target: GlcNAc(b1-4)GlcNAc(b1-4)GlcNAc(b1-4)GlcNAc(b1-4)GlcNAc(b1-4)GlcNAc
# Summary of the method: as §1
# [18] = biological target: GlcNAc(b1-4)[GlcNAc(b1-6)]GalNAc
# Summary of the method: as §1
# [19] = biological target: GlcNAc(b1-6)Gal(b1-4)GlcNAc
# Summary of the method: as §1
# [20] = biological target: GlcNAc(b1-6)GalNAc
# Summary of the method: as §1
# [21] = biological target: GlcNAc6S(b1-3)Gal(b1-4)GlcNAc
# Summary of the method: as §1
# [22] = biological target: Kdn(a2-3)Gal(b1-3)GalNAc
# Summary of the method: as §1
# [23] = biological target: Kdn(a2-3)Gal(b1-3)GlcNAc
# Summary of the method: as §1
# [24] = biological target: Kdn(a2-3)Gal(b1-4)Glc
# Summary of the method: as §1
# [25] = biological target: Kdn(a2-3)Gal(b1-4)GlcNAc
# Summary of the method: as §1
# [26] = biological target: Kdn(a2-3)Gal(b1-4)[Fuc(a1-3)]GlcNAc
# Summary of the method: as §1
# [27] = biological target: Kdn(a2-6)Gal(b1-4)GlcNAc
# Summary of the method: as §1
# [28] = biological target: Man(a1-2)Man(a1-2)Man(a1-3)Man
# Summary of the method: as §1
# [29] = biological target: Man(a1-2)Man(a1-2)Man(a1-6)[Man(a1-3)]Man
# Summary of the method: as §1
# [30] = biological target: Man(a1-2)Man(a1-3)Man
# Summary of the method: as §1
binder,measurement,setting,value
B1,glycan array binding signal (z-score),[1],0.439
same,glycan array binding signal (z-score),[2],0.83
same,glycan array binding signal (z-score),[3],-1.07
same,glycan array binding signal (z-score),[4],-1.39
same,glycan array binding signal (z-score),[5],-0.339
same,glycan array binding signal (z-score),[6],0.694
same,glycan array binding signal (z-score),[7],-0.322
same,glycan array binding signal (z-score),[8],0.733
same,glycan array binding signal (z-score),[9],-0.227
same,glycan array binding signal (z-score),[10],-0.635
same,glycan array binding signal (z-score),[11],0.609
same,glycan array binding signal (z-score),[12],-0.647
same,glycan array binding signal (z-score),[13],-0.482
same,glycan array binding signal (z-score),[14],-0.318
same,glycan array binding signal (z-score),[15],-0.945
same,glycan array binding signal (z-score),[16],1.12
same,glycan array binding signal (z-score),[17],-1.28
same,glycan array binding signal (z-score),[18],-0.928
same,glycan array binding signal (z-score),[19],0.999
same,glycan array binding signal (z-score),[20],0.147
same,glycan array binding signal (z-score),[21],-0.822
same,glycan array binding signal (z-score),[22],-0.164
same,glycan array binding signal (z-score),[23],-0.04
same,glycan array binding signal (z-score),[24],0.592
same,glycan array binding signal (z-score),[25],-1.15
same,glycan array binding signal (z-score),[26],0.086
same,glycan array binding signal (z-score),[27],1.42
same,glycan array binding signal (z-score),[28],-0.66
same,glycan array binding signal (z-score),[29],0.128
same,glycan array binding signal (z-score),[30],-0.675

# An excerpt of these results, as tab-separated lines.
binder	measurement	setting	value
B1	glycan array binding signal (z-score)	[5]	-0.339
same	glycan array binding signal (z-score)	[6]	0.694
